The values that follow come from PMC10183829, “Shuffled ATG8 interacting motifs form an ancestral bridge between UFMylation and autophagy” (The EMBO Journal, 2023).

Chains of the proteins cited; added tags and fusions are not shown. Lines headed by an entry give the natural chain unless they say otherwise; changes in a name come on top.
UniProt Q9FG23: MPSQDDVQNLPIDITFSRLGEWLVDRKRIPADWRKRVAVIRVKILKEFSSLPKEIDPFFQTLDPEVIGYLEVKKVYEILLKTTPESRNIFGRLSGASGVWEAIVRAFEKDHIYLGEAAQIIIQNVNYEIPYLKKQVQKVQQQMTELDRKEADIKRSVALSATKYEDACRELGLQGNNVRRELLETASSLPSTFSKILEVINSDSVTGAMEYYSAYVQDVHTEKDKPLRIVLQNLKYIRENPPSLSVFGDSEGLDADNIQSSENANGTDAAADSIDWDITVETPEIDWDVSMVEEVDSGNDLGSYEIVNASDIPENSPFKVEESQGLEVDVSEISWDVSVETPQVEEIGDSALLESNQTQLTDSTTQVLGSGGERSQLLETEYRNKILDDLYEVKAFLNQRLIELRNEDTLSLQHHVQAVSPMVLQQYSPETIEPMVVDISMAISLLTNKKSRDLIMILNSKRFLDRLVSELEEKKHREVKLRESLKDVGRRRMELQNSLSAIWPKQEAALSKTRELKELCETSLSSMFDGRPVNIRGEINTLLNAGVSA

In experiment [1] the target is T1, GST-ATG8A (Arabidopsis thaliana) (UniProt Q8LEM4).
T1 sequence: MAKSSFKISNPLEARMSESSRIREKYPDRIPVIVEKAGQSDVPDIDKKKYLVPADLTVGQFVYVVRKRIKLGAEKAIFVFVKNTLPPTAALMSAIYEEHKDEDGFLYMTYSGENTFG
The experiment can be described thus: pull-down; as a1, with the cAIM peptide added as competitor (200 μM final in Fig 3B).

Experiment [2] has as its target T1, GST-ATG8A (Arabidopsis thaliana). Put plainly: pull-down; GST-tagged bait on glutathione magnetic agarose beads; E. coli lysates containing the recombinant proteins mixed, 1 h at 4°C; wash buffer 100 mM sodium phosphate pH 7.2, 300 mM NaCl, 1 mM DTT, 0.01% IGEPAL; immunoblot with anti-GST and anti-MBP. For orientation: Immunoblotting shows a protein as a band on a membrane.

Experiment [3] has as its target T2, GST-ATG8A^LDS (YL50AA) (Arabidopsis thaliana) (UniProt Q8LEM4).
T2 sequence: T1 sequence with Y50A, L51A
The description is as above.

Experiment [4] deals with T3, ATG8A (purified) (Arabidopsis thaliana) (UniProt Q8LEM4).
T3 sequence: T1 sequence
The experiment can be described thus: NMR titration; unlabeled protein or peptide (50-300 μM) added to 100 μM 15N-labeled protein; 1H-15N HSQC, 25°C, 50 mM sodium phosphate pH 7.0, 100 mM NaCl, 10% D2O; both purified.

The target in experiment [5] is T3, ATG8A (purified) (Arabidopsis thaliana). Put plainly: NMR titration; both purified.
Experiment [6] addresses T1, GST-ATG8A (Arabidopsis thaliana). Put plainly: microscopy-based on-bead protein-protein interaction assay; both purified.

Residue numbers refer to the chain shown, from its start. No constants are given. Whether binding was seen depends on the method and setting. For some of these results: Binding calls can cover weak binding; strength is not graded here. For some of these results: Sequences can lack the tags named with a protein. For some of these results: In cells and extracts the contact can be indirect.

With MBP-AtC53 (from UniProt Q9FG23), the binding entry in experiment [1] was “binds”; in experiment [2], “binds”; in experiment [3], “no binding”.

For the substance “AtC53 IDR (264-341) (from UniProt Q9FG23) (domain or fragment)”, the binding result in experiment [4] was “binds”.

As to “AtC53 IDR^W276A (264-341) (from UniProt Q9FG23) (domain or fragment)”, the binding entry in experiment [5] is listed as “binds”.

As for mCh-AtC53 (from UniProt Q9FG23), the binding entry in experiment [6] was “binds”.

As to “C53 homolog from Phytophthora sojae (Ps)”, the binding result in experiment [2] is given as “binds”.
